According to PubChem BioAssay AID2718 (Broad Institute, 2010):
The whole screen tested about 320,000 compounds, of which about 480 (0.15%) were called active. Inconclusive results, whose numbers are uncertain, are shown with a selection of clear calls. Cut-off read from the data, not from the text of the source: active = inhibition above about 26% (passing the limit was not always enough); inconclusive = no clear call, values can overlap the other calls.

Protein sequences, listed by entry. Tags and fused reporters are not part of them.
UniProt O15379, whole entry, looked up: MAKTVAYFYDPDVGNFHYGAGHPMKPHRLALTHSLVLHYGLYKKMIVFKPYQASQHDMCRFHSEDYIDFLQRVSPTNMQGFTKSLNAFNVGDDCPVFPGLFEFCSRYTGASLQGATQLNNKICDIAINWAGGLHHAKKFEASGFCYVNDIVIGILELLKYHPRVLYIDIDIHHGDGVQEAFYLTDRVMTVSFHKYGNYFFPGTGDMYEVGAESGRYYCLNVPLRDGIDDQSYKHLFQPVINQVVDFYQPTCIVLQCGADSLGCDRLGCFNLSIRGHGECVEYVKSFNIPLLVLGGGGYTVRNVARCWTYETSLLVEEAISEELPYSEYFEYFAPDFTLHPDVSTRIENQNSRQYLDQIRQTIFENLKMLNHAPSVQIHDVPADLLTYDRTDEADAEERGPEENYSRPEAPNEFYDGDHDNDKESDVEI

These molecules were tested against Histone deacetylase 3 (Homo sapiens) (UniProt O15379) (assay: HDAC3 deacetylase inhibitors, primary screen, biochemical, fluorescence, cell-free homogeneous (AID 2718)). Details: recombinant HDAC3, fluorogenic peptide/trypsin coupled, at 8.3 µM, stronger effect = higher value.
`CCN(CC)C(=O)CSc1nc2c(sc(=S)n2-c2ccccc2)c(=O)[nH]1` was tested, and the inhibition was inconclusive: 18.6%.
For `CN1CCc2[nH]c3ccc(C(=O)NN)cc3c2C1`, the inhibition was inactive: 3.88%.
For `COc1ccc(O)c(C2=Nc3ccccc3N=C(c3cccs3)C2)c1`, the inhibition was inconclusive: 27.8%.
In the case of `O=C(COc1ccc([N+](=O)[O-])cc1)Nc1nc(-c2ccccn2)cs1`, the inhibition is reported as inactive: 0.184%.
With `CNc1nc(-c2ccccc2)[n+](-c2ccc(C)cc2)s1` the inhibition was active: 42.1%.
For `CN1CCN(c2ccccc2NC(=O)Cc2ccc(Cl)cc2)CC1`, the inhibition was inconclusive: 20.4%.
With `O=C(N=C1SC2CS(=O)(=O)CC2N1c1ccc(Cl)cc1Cl)C1CC1` (configuration not stated) the inhibition was inconclusive: 17.1%.
With `COc1cc(C(=O)OCC(=O)NC2CCCCC2)cc(OC)c1OC` the inhibition was inactive: -3.34%.
For `Cc1nc2cc(-c3ccccc3)ccc2o1`, the inhibition was inactive: 5.85%.
In the case of `CCN(CC(=O)Nc1ccc(NC(C)=O)cc1)C(=O)Cc1ccc(S(=O)(=O)N2CCOCC2)s1`, the inhibition is reported as inactive: -3.55%.
With `O=C(NCCCn1ccnc1)C(=O)NCC(c1ccco1)N1CCN(c2ccccc2)CC1` (configuration not stated) the inhibition was inactive: 8.16%.
For `O=C(Nc1ccccc1O)c1ccc(NS(=O)(=O)c2cccc3cccnc23)cc1`, the inhibition was active: 103%.
With `CCn1c(=O)n(CC)c2cc(N3CCCC3)c(NC(=O)c3ccc(C)cc3)cc21` the inhibition was inconclusive: 26.9%.
For `COc1ccc(S(=O)(=O)NCCCN2CCCC2=O)c(OC)c1`, the inhibition was inconclusive: 19.4%.
With `Cc1c(NS(=O)(=O)c2cccs2)c(=O)n(-c2ccccc2)n1C` the inhibition was inconclusive: 20.5%.
With `C=CCn1c(Sc2nnc(C)s2)nc2c1c(=O)[nH]c(=O)n2C` the inhibition was inactive: -3.21%.
`CN1C[C@@H]2C[C@@H](C3=Cc4cc(Cl)ccc4OC3)N3CCC[C@@]23C1=O` was tested, and the inhibition was inconclusive: 15.8%.
With `CCOC(=O)C1=C(C)NC2=C(C(=O)C(C(=O)OCC)C(c3ccc(OC)cc3)C2)C1c1ccccn1` (configuration not stated) the inhibition was inactive: -7.74%.
In the case of `CN1CCN(C(=O)CCCN2C(=O)/C(=C/c3ccc(Cl)cc3)SC2=S)CC1`, the inhibition is reported as inactive: 3.33%.
With `CCC(=NNC(=O)c1ccc2c(c1)nc(C)n2CC)c1cc(F)ccc1O` the inhibition was inconclusive: 33.3%.
With `C[C@H](NC(=O)[C@H]1N2C(=O)c3ccccc3C2SC1(C)C)C(=O)N1CCN(C)CC1` (some centres not stated) the inhibition was inactive: -0.414%.
With `FC(F)(F)c1cccc(NC(=S)NNC(=S)Nc2ccc(Cl)cc2)c1` the inhibition was inconclusive: 27.5%.
In the case of `Cn1nnnc1SCC(=O)N1N=C(c2ccc(Cl)cc2)CC1c1ccco1` (configuration not stated), the inhibition is reported as inconclusive: 8.89%.
With `COc1ccc(CN2CCN(C(c3ccc(F)cc3)c3ccc(F)cc3)CC2)c(OC)c1OC` the inhibition was inconclusive: 25.3%.
For `CCOC(=O)Cn1c(=O)n(Cc2ccco2)c(=O)c2ccc(C(=O)NC3CCCC3)cc21`, the inhibition was inconclusive: 13.9%.
In the case of `O=C(COC(=O)c1cccc(Cl)c1Cl)NCCN1C(=O)CSC1=O`, the inhibition is reported as inactive: -2.09%.
With `C/C(Cn1cnc([N+](=O)[O-])n1)=N\NC(=O)c1ccccc1` the inhibition was inactive: 0.614%.
For `O=C(NCc1ccncc1)Nc1ccccc1Cl`, the inhibition was inconclusive: 13.9%.
For `CN(C)c1nc(Oc2ccc(/C=N/O)cc2)nc(N(C)C)n1`, the inhibition was inactive: 3.33%.
With `CSc1ccc(/C=N/n2c(C)nnc2C)cc1` the inhibition was inactive: 5.78%.
In the case of `Cc1ccsc1C(=O)OCC(=O)Nc1cccc(S(=O)(=O)N2CCOCC2)c1`, the inhibition is reported as inconclusive: 19.1%.
In the case of `CC(C)(C)OC(=O)NCCCC[C@H](NC(=O)c1[nH]cnc1C(=O)Nc1ccc(Cl)cc1)C(=O)OC(C)(C)C`, the inhibition is reported as inconclusive: 19.9%.
For `COCCn1nnnc1C(c1ccccc1OC)N1CCN(c2ccccc2)CC1` (configuration not stated), the inhibition was inactive: -6.09%.
In the case of `O=C(OC(C(=O)Nc1cccc(C(F)(F)F)c1)c1ccccc1)C1CCCCC1` (configuration not stated), the inhibition is reported as inconclusive: 17%.
With `O=C(Nc1ccc(Cl)cc1)N(Cc1cccs1)Cc1cccs1` the inhibition was inconclusive: 18.4%.
With `COc1cc(/C=C2/CCc3ccccc3C2=O)cc(OC)c1OC` the inhibition was inconclusive: 32.2%.
For `COc1ccc(Cl)cc1NCC(=O)Nc1ccc(OC)c(S(=O)(=O)N2CCCCC2)c1`, the inhibition was inconclusive: 33%.
`COc1ccc(Nc2oc(COc3ccc(Cl)cc3)nc2C#N)cc1` was tested, and the inhibition was inconclusive: 18.5%.
For `CSc1ccccc1NC(=O)NCCCl`, the inhibition was inactive: -3.6%.
`O=C(NC(=S)NCC1CCCO1)c1ccc(Cl)cc1Cl` (configuration not stated) was tested, and the inhibition was inconclusive: 16.8%.
With `CC(=O)NNC(=S)NC(=O)C(c1ccccc1)c1ccccc1` the inhibition was inactive: 5.41%.
For `CN(c1ccccc1C(=O)N1CCN(Cc2ccc3c(c2)OCO3)CC1)S(C)(=O)=O`, the inhibition was inconclusive: 10.2%.
`C/C(=N\OCC(=O)OCC(=O)Nc1cc(S(C)(=O)=O)ccc1Cl)c1ccc2c(c1)OCO2` was tested, and the inhibition was inconclusive: 22.1%.
In the case of `CC(C)(C)OC(=O)N[C@@H](Cc1ccccc1)c1nnc(S(=O)(=O)Cc2ccccc2)o1`, the inhibition is reported as active: 75.5%.
For `C=CCN(c1ccccc1)S(=O)(=O)c1ccc2c(c1)NC(=O)C(C)C(=O)N2` (configuration not stated), the inhibition was inconclusive: 14.8%.
For `N#CCC(=O)Nc1ccc(C(=O)NCc2cccc(Cl)c2)cc1`, the inhibition was inactive: -6.62%.
For `C/C(N)=C(/C#N)C(=O)COC(=O)c1cc(S(=O)(=O)N2CCCCC2)ccc1C`, the inhibition was inconclusive: 18.6%.
`COc1ccc(C(C)(C)C)cc1NC(=O)Nc1ccc2c(c1)OCO2` was tested, and the inhibition was inconclusive: 20.6%.
For `COc1ccccc1-c1noc2ncnc(Nc3cccc(C)c3C)c12`, the inhibition was inconclusive: 14.4%.
In the case of `O=C(c1ccccc1)c1ccc(OCCn2cnc3ccccc3c2=O)cc1`, the inhibition is reported as inconclusive: 12%.
For `CCOC(=O)Cn1c(=O)cc(C)c2ccccc21`, the inhibition was inactive: -3.29%.
`COc1cccc(C(=O)Oc2cc(N)n(S(=O)(=O)c3ccc(C)cc3)n2)c1OC` was tested, and the inhibition was active: 53.4%.
For `O=C(NC1CCCCC1)c1ccc(CS(=O)(=O)c2ccc(Cl)cc2)o1`, the inhibition was inconclusive: 13.9%.
`O=C(NCC1CCCO1)c1onc(CSc2ccccc2)c1C(=O)O` (configuration not stated) was tested, and the inhibition was inactive: -3.04%.
`c1ccc(CNc2ncnc3c2cnn3-c2ccccc2)cc1` was tested, and the inhibition was inactive: 0.8%.
With `C[C@H](CO)N1C[C@H](C)[C@@H](CN(C)Cc2ccncc2)Oc2c(NC(=O)CCCCCC(=O)Nc3ccccc3N)cccc2C1=O` the inhibition was active: 57%.
`OC(CNC1CCCc2ccccc21)COc1c(Cl)cccc1Cl` (configuration not stated) was tested, and the inhibition was inconclusive: 21.1%.
In the case of `Cc1ccc2c(c1)sc[n+]2Cc1ccccc1`, the inhibition is reported as inactive: -1.38%.
In the case of `O/N=C1/CCCCC1c1ccccn1` (configuration not stated), the inhibition is reported as inconclusive: 17.5%.
With `O=C(CCCN1C(=O)c2ccccc2C1=O)NCCN1C(=O)S/C(=C\c2cccs2)C1=O` the inhibition was inconclusive: 27.2%.
For `O=C(Nc1ccc(Cl)cc1)NN1CC(=O)N(c2cccc(C(F)(F)F)c2)CC1=O`, the inhibition was inconclusive: 16.4%.
In the case of `O=C1Cc2cc(NS(=O)(=O)c3cc(F)ccc3F)cc3c2N1CCC3`, the inhibition is reported as inconclusive: 28.1%.
With `COc1cccc(CNc2ccc(N3CCCCC3)cc2)c1OC` the inhibition was inactive: 11.6%.
For `COc1cc(NC(=O)c2cccc(Cl)c2)ccc1NC(=O)c1cccs1`, the inhibition was inconclusive: 15.1%.
For `O=c1c2cc(Br)ccc2nc(-c2cccc(C(F)(F)F)c2)n1O`, the inhibition was inactive: 0.692%.
`Cc1nc(C(F)(F)F)c(C(=O)O)cc1-c1nc(-c2ccccc2)cs1` was tested, and the inhibition was inactive: 2.83%.
With `Cc1ccc(N2CCN(c3ccc(NC(=O)CCC(=O)O)cc3)CC2)cc1` the inhibition was inconclusive: 20.1%.
In the case of `O=C(NCc1cccnc1)c1ccc(CS(=O)(=O)c2ccc(Br)cc2)o1`, the inhibition is reported as inconclusive: 28.8%.
In the case of `C/C(=N/NS(=O)(=O)c1ccc(C)cc1C)c1c[nH]c2ccccc12`, the inhibition is reported as inconclusive: 33%.
In the case of `CCOc1ncccc1C(=O)NCCc1ccc(S(N)(=O)=O)cc1`, the inhibition is reported as inconclusive: 5.79%.
For `CCOc1ccccc1C(=O)Nc1cc(Cl)ccc1O`, the inhibition was inconclusive: 19.5%.
With `CCCC(=O)c1c[nH]c(C(=O)NCc2ccco2)c1` the inhibition was inconclusive: 24.4%.
For `O=C(Nc1ccc2c(c1)OCCO2)c1cccc(S(=O)(=O)N2CCCCC2)c1`, the inhibition was inconclusive: 18.9%.
With `C[C@H](CO)N1C[C@H](C)[C@@H](CN(C)S(=O)(=O)c2ccc(F)cc2)Oc2ccc(NS(=O)(=O)c3ccc(F)cc3)cc2C1=O` the inhibition was inconclusive: 23%.
`COc1ccc(Cl)cc1C(=O)OCC(=O)N(CC(C)C)c1c(N)n(Cc2ccccc2)c(=O)[nH]c1=O` was tested, and the inhibition was inactive: 3.75%.
With `COC(=O)c1ccccc1NS(=O)(=O)c1ccc(Cl)nc1` the inhibition was inactive: -1.69%.
With `CCc1ccc(OCC(=O)NNC(=O)c2cc(S(=O)(=O)N3CCOCC3)ccc2N2CCCC2)cc1` the inhibition was inconclusive: 46%.
For `O=S(=O)(Cc1ccccc1)NCC1CCCN(Cc2cccc3nonc23)C1` (configuration not stated), the inhibition was inactive: -2.92%.
`O=C(NC12CC3CC(CC(C3)C1)C2)N1CCN(c2ccccc2)CC1` was tested, and the inhibition was inconclusive: 17.2%.
For `Cc1c(Cl)c([N+](=O)[O-])nn1CC(=O)NCC(C)C`, the inhibition was inactive: 9.1%.
`O=c1oc(-c2ccco2)nc2c1cnn2-c1ccccc1` was tested, and the inhibition was active: 61.8%.
With `O=C(NCc1cc(C(F)(F)F)cc(C(F)(F)F)c1)C1CC(c2ccccc2C(F)(F)F)=NO1` (configuration not stated) the inhibition was inconclusive: 24.9%.
In the case of `CCOC(=O)N1CCN(C(=O)COc2ccc3oc4c(c3c2)CCCC4)CC1`, the inhibition is reported as inconclusive: 18.5%.
`COc1ccc(C(=O)OCC(=O)Nc2ccc(Cl)c(C(F)(F)F)c2)c(OC)c1OC` was tested, and the inhibition was inconclusive: 11.5%.
For `CC(=O)Nc1ccc(C(=O)N2CCCC2)cc1`, the inhibition was inconclusive: 13.3%.
With `Cc1c(NS(=O)(=O)c2ccc(N=NN(C)C)cc2)c(=O)n(-c2ccccc2)n1C` the inhibition was inactive: 3.29%.
With `CCN(CC)c1nc(Nc2ccc(Cl)cc2)nc(OCC#N)n1` the inhibition was active: 31.6%.
